Consider four compounds from patent US6905813B2, “Processing agent for silver halide color photosensitive material and processing method thereof” (Chugai Photo Chemical Co., Ltd., priority 2001, dated 2005).

The nature of the first data set: Running Test 2 (Example 2): bleaching and fixing solution with additive, automatic developer QSS1201, large processing amount. Conditions: decomposed material on filter, naked eye; additive 0.35 mol/L (sodium sulfite 0.60); replenishment 35 ml/m2; 1500 L size pictures/day, 1 month. More on the design: key to Existence/non-existence of attached materials: −: No attachment of decomposed materials.; +: Very little amount of attachment of decomposed materials on the filter.; ++: Little amount of attachment of decomposed materials on the filter.; +++: Large amount of attachment of decomposed materials on the filter.
`CCN(CC)CCN` [N,N-diethylethylenediamine]: the “Existence/non-existence of attached materials” value (from here on “Existence/non-existence”) is “−”.
As to `CC(N)CCN` (stereo not drawn) [1,3-diaminobutane], the “Existence/non-existence” value is “+”.
Still for that read-out and setting: the value for `NCCCCN` [1,4-diaminobutane] was “+”.
As to `NCCNCCNCCN` [triethylenetetramine], the “Existence/non-existence” value is “−”.

Still in this data set, the particulars now being: pH of the running solution after the experiment.
`CCN(CC)CCN` [N,N-diethylethylenediamine]: the pH came out at 7.30.
On the same count and under the same terms, the value for `CC(N)CCN` (stereo not drawn) [1,3-diaminobutane] was 8.70; that for `NCCCCN` [1,4-diaminobutane] was 8.81.
Compound `NCCNCCNCCN` [triethylenetetramine] displayed a pH of 7.20.

The data set is the same for the next values; noted with them: visual concentration of yellow patch on control strip after processing, X-rite 310.
As for `CCN(CC)CCN` [N,N-diethylethylenediamine], the Y-Dmax concentration is on record as 0.23.
The same measure, in the same setting: with `CC(N)CCN` (stereo not drawn) [1,3-diaminobutane] the figure was 0.32.
On the same count and under the same terms, with `NCCCCN` [1,4-diaminobutane] the figure was 0.38; with `NCCNCCNCCN` [triethylenetetramine], 0.23.
